Construct, isoform or probe ends are uncertain for at least one entry. Where a protein sequence is shown, tags need not be part of it.
Molecular target: T1, SegB (SegBSa) (Sulfolobus acidocaldarius) (UniProt Q4JC57)
T1 sequence (looked up, limits assumed): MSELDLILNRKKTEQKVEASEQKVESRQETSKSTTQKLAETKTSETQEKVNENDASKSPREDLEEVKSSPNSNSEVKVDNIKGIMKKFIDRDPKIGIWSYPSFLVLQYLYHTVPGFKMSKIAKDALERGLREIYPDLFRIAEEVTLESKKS
Assay: DNase I footprinting
Settings: large window, three additional sites; DNA 1-5 nM, SegB 0-1000 nM; recombinant protein; label: biotin

“GTATTTTTATTTTTGGATAAAGTGTAAGAGAGATTTACGGAGGTTGTAGTTTTCCCTACACCTCCTTTCTGATTGATGACAGTGATTATCATATATAGACTCTTAACTCTATACCCTTTATTTCAGATTCTTCTCATAATACACCGTAGTCTGGAGTGAAAAATCTAAAGTAAATCCACTAGGTGAATAGGTTTTAAACC (double strand) [peak 15 region, 200 bp]”: binds.

— paper PMC12284271, “Coupling chromosome organization to genome segregation in Archaea”
